Reference: paper PMC11674933
Where two headings read alike, the source gives them in different places. These are yes or no findings as the source states them, for the method shown. Some results given as binding are weak or reduced against the parent protein; the word gives no strength.

Amino acid sequences for entries named in this document (tags omitted). Residues count along the entry.
UniProt Q9P126, residues 55-229: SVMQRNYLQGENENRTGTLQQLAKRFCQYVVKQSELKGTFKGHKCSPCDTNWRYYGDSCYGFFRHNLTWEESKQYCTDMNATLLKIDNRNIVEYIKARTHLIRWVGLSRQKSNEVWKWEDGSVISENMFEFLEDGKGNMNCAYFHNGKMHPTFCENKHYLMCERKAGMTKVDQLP

Tests used:
[1] = target: T1, ^2E3PDPN overexpressed on HCT 116 cells (human) (UniProt Q86YL7); assay: flow cytometry on cells; mutPlGF-CLEC2 in HEK-293T conditioned medium on HCT 116 cells expressing CA9^NS or ^2E3PDPN, incubation at 4 °C, then staining
T1 sequence: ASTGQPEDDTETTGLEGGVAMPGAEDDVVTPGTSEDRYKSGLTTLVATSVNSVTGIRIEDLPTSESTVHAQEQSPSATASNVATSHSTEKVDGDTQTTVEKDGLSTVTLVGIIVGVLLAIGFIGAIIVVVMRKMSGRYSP

[2] = target: T1, ^2E3PDPN overexpressed on HCT 116 cells (human)

binding [1]: binds
binding [2]: no binding
Substance: CLEC2 construct from the recombinant library (mutPlGF-CLEC2) (from UniProt Q9P126 55-229) (domain or fragment)
